Measured values: patent US20240026461A1, “BCL10 MUTATIONS AS BIOMARKERS FOR TARGETED THERAPY IN B CELL LYMPHOMAS” (priority 2022, published 2024)
Results are given in words; binding and its absence hold for the method and conditions named. In cells and extracts the contact can be indirect. Some results given as binding are weak or reduced against the parent protein; the word gives no strength. Tags and fused reporters may be left off the sequences shown.

T1: MALT1 (Ig1-Ig2) (human, UniProt Q9UDY8 125-309)
T1 construct: domain: Ig1-Ig2; also called Ig1-Ig2 construct of MALT1; MALT1 (207-309)
T1 sequence (looked up): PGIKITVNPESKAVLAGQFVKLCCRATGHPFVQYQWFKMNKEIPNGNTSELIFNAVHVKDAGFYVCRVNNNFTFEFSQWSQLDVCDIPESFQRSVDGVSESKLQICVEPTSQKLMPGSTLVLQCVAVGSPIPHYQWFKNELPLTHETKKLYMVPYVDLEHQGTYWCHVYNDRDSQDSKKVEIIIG


Assays:
MALT1 (Ig1-Ig2) [1] = biological target: T1, MALT1 (Ig1-Ig2); test: His pull-down after co-expression in E. coli, Coomassie-stained SDS-PAGE
Experimental: The inventors designed experiments to determine whether there were additional MALT1-binding sites on BCL10 at its largely unstructured C-terminus. The C-terminal region was divided into two halves and MALT1 pull-down studies were performed. […] Of note, unlike the interaction between BCL10 CARD and MALT1 death domain (DD) in the filamentous form, the interaction between BCL10 C-terminal region and MALT1 Ig1-Ig2 is monomeric as assessed by gel filtration chromatography of the complex.

[2] = biological target: MALT1 (of the lymphoma cell lysates, detected with anti-MALT1) (UniProt Q9UDY8); test: anti-Flag co-immunoprecipitation from Raji cells, anti-MALT1 blot
MALT1 (Ig1-Ig2) [3] = biological target: T1, MALT1 (Ig1-Ig2); test: His pull-down, SDS-PAGE

binding [2] | Binder | other results
– | His-tagged BCL10 (165-233) (protein, not shown: small tags and cut ends) FFSTNSSLNLPVLEVGRTENTIFSSTTLPRPGDPGAPPLPPDLQLEEEGTCANSSEMFLPLRSRTVSRQ | binding (MALT1 (Ig1-Ig2) [1]): binds
binds | Flag-BCL10^WT (protein, not shown: small tags and cut ends) MEPTAPSLTEEDLTEVKKDALENLRVYLCEKIIAERHFDHLRAKKILSREDTEEISCRTSSRKRAGKLLDYLQENPKGLDTLVESIRREKTQNFLIQKITDEVLKLRNIKLEHLKGLKCSSCEPFPDGATNNLSRSNSDESNFSEKLRASTVMYHPEGESSTTPFFSTNSSLNLPVLEVGRTENTIFSSTTLPRPGDPGAPPLPPDLQLEEEGTCANSSEMFLPLRSRTVSRQ | –
binds | Flag-BCL10^R58Q (protein, not shown: small tags and cut ends) MEPTAPSLTEEDLTEVKKDALENLRVYLCEKIIAERHFDHLRAKKILSREDTEEISCQTSSRKRAGKLLDYLQENPKGLDTLVESIRREKTQNFLIQKITDEVLKLRNIKLEHLKGLKCSSCEPFPDGATNNLSRSNSDESNFSEKLRASTVMYHPEGESSTTPFFSTNSSLNLPVLEVGRTENTIFSSTTLPRPGDPGAPPLPPDLQLEEEGTCANSSEMFLPLRSRTVSRQ | –
binds | Flag-BCL10^R87Q (protein, not shown: small tags and cut ends) MEPTAPSLTEEDLTEVKKDALENLRVYLCEKIIAERHFDHLRAKKILSREDTEEISCRTSSRKRAGKLLDYLQENPKGLDTLVESIQREKTQNFLIQKITDEVLKLRNIKLEHLKGLKCSSCEPFPDGATNNLSRSNSDESNFSEKLRASTVMYHPEGESSTTPFFSTNSSLNLPVLEVGRTENTIFSSTTLPRPGDPGAPPLPPDLQLEEEGTCANSSEMFLPLRSRTVSRQ | –
– | FFSTNSSLNLPVLEVGRTENTIFSSTTLPRPGDPGAPPLPPDLQ (peptide, not shown: small tags and cut ends) [His-tagged BCL10 construct containing residues 165-208] | binding (MALT1 (Ig1-Ig2) [3]): binds
